Data source: PubChem BioAssay AID1259254 (NCATS, 2017)

Screen: 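Finding genes that stop cells copying their DNA twice in one cycle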 (primary screen)
System: human HCT116 colorectal cancer cells
Knock-down reagent: single siRNA against human genes
Timing: 3 days
Measured: 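Nuclei stained with Hoechst and imaged; cell-cycle phase assigned by DNA content; G2 share scaled per plate, non-targeting siRNA 0%, GMNN siRNA 100%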
Scale: G2 robust z-score and G2 cells, % of GMNN control: higher = more G2 cells, more excess DNA replication; raw share of cells in G2: higher = larger share of cells with G2 DNA content
Active means: 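An siRNA counts as active if its G2 robust z-score lies at least 5 MADs above the screen median; here such calls match roughly 38% of GMNN control or more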
Here is an unselected part of about 59,000 reagents tested. Of all reagents, about 1,550 (2.6%) were called active. 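G2 share is only a proxy for re-replication; each gene was hit by three separate siRNAs, and active genes were retested.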 Raw values vary from plate to plate and are shown uncorrected. Reagents against one gene are numbered here. No sequences are given here. Not stated in the record: the amount of reagent.

gene knocked down | reagent | G2 robust z-score | G2 cells, % of GMNN control | raw share of cells in G2 (%) | outcome
MYL3 (myosin light chain 3) | 1 | 0.0748 | 3.49 | 4.35 | inactive
MYL3 (myosin light chain 3) | 2 | -0.11 | 2.2 | 6.34 | inactive
MYL3 (myosin light chain 3) | 3 | -0.00256 | 2.95 | 6.5 | inactive
PLS3 (plastin 3) | 1 | -1.28 | -6 | 2.15 | inactive
PLS3 (plastin 3) | 2 | -0.267 | 1.09 | 5.1 | inactive
PLS3 (plastin 3) | 3 | -0.37 | 0.367 | 5.1 | inactive
RBM12 (RNA binding motif protein 12) | 1 | 1.71 | 15 | 12.1 | inactive
RBM12 (RNA binding motif protein 12) | 2 | -0.917 | -3.48 | 2.49 | inactive
RBM12 (RNA binding motif protein 12) | 3 | -0.253 | 1.18 | 3.84 | inactive
ST6GALNAC3 (ST6 N-acetylgalactosaminide alpha-2,6-sialyltransferase 3) | 1 | -1.19 | -5.41 | 2.43 | inactive
ST6GALNAC3 (ST6 N-acetylgalactosaminide alpha-2,6-sialyltransferase 3) | 2 | -0.903 | -3.39 | 4.34 | inactive
ST6GALNAC3 (ST6 N-acetylgalactosaminide alpha-2,6-sialyltransferase 3) | 3 | 1.8 | 15.7 | 10.4 | inactive
LAIR1 (leukocyte associated immunoglobulin like receptor 1) | 1 | 1.6 | 14.2 | 11.1 | inactive
LAIR1 (leukocyte associated immunoglobulin like receptor 1) | 2 | 0.979 | 9.86 | 6.45 | inactive
LAIR1 (leukocyte associated immunoglobulin like receptor 1) | 3 | -0.408 | 0.1 | 5.4 | inactive
SYNJ2BP (synaptojanin 2 binding protein) | 1 | 0.322 | 5.23 | 6.53 | inactive
SYNJ2BP (synaptojanin 2 binding protein) | 2 | 0.0437 | 3.27 | 5.5 | inactive
SYNJ2BP (synaptojanin 2 binding protein) | 3 | -0.846 | -2.99 | 2.18 | inactive
DUBR (DPPA2 upstream binding RNA) | 1 | -0.831 | -2.88 | 3 | inactive
DUBR (DPPA2 upstream binding RNA) | 2 | 1.19 | 11.3 | 8.22 | inactive
DUBR (DPPA2 upstream binding RNA) | 3 | -1.06 | -4.47 | 2.39 | inactive
NDUFV2 (NADH:ubiquinone oxidoreductase core subunit V2) | 1 | 1.59 | 14.1 | 11.1 | inactive
NDUFV2 (NADH:ubiquinone oxidoreductase core subunit V2) | 2 | -1.16 | -5.18 | 3.36 | inactive
NDUFV2 (NADH:ubiquinone oxidoreductase core subunit V2) | 3 | -0.308 | 0.799 | 3.46 | inactive

A few values from the entries so far:
RBM12 (RNA binding motif protein 12) #2, outcome: inactive
Result for PLS3 (plastin 3) #2 in “G2 cells, % of GMNN control”: 1.09
Under “G2 cells, % of GMNN control”, NDUFV2 (NADH:ubiquinone oxidoreductase core subunit V2) #3 shows 0.799
Entry for DUBR (DPPA2 upstream binding RNA) #3 in “G2 cells, % of GMNN control”: -4.47
MYL3 (myosin light chain 3) #3, outcome: inactive

More records follow:
gene knocked down | reagent | G2 robust z-score | G2 cells, % of GMNN control | raw share of cells in G2 (%) | outcome
DIO1 (iodothyronine deiodinase 1) | 1 | 0.518 | 6.61 | 7.32 | inactive
DIO1 (iodothyronine deiodinase 1) | 2 | -1.44 | -7.16 | 2.38 | inactive
DIO1 (iodothyronine deiodinase 1) | 3 | -0.277 | 1.02 | 4.45 | inactive
NCOR2 (nuclear receptor corepressor 2) | 1 | 1.04 | 10.3 | 6.71 | inactive
NCOR2 (nuclear receptor corepressor 2) | 2 | -0.699 | -1.95 | 3.96 | inactive
NCOR2 (nuclear receptor corepressor 2) | 3 | 0.591 | 7.13 | 7.9 | inactive
THSD7B (thrombospondin type 1 domain containing 7B) | 1 | -0.0771 | 2.42 | 5.45 | inactive
THSD7B (thrombospondin type 1 domain containing 7B) | 2 | 2.2 | 18.5 | 12.4 | inactive
THSD7B (thrombospondin type 1 domain containing 7B) | 3 | 0.606 | 7.23 | 4.35 | inactive
OR3A2 (olfactory receptor family 3 subfamily A member 2) | 1 | 0.715 | 8 | 8.37 | inactive
OR3A2 (olfactory receptor family 3 subfamily A member 2) | 2 | -0.611 | -1.33 | 3.69 | inactive
OR3A2 (olfactory receptor family 3 subfamily A member 2) | 3 | -0.00341 | 2.94 | 4.42 | inactive
OR52B6 (olfactory receptor family 52 subfamily B member 6) | 1 | -1.1 | -4.79 | 2.34 | inactive
OR52B6 (olfactory receptor family 52 subfamily B member 6) | 2 | -0.157 | 1.86 | 4.07 | inactive
OR52B6 (olfactory receptor family 52 subfamily B member 6) | 3 | 2.52 | 20.7 | 12.5 | inactive
KCNRG (potassium channel regulator) | 1 | -1.56 | -7.99 | 0.839 | inactive
KCNRG (potassium channel regulator) | 2 | -0.135 | 2.02 | 4.38 | inactive
KCNRG (potassium channel regulator) | 3 | -0.0852 | 2.37 | 3.96 | inactive
MRPL10 (mitochondrial ribosomal protein L10) | 1 | -0.425 | -0.0257 | 1.81 | inactive
MRPL10 (mitochondrial ribosomal protein L10) | 2 | -0.15 | 1.91 | 4.86 | inactive
MRPL10 (mitochondrial ribosomal protein L10) | 3 | 1.58 | 14.1 | 7.54 | inactive
LGI2 (leucine rich repeat LGI family member 2) | 1 | 0.372 | 5.59 | 6.44 | inactive
LGI2 (leucine rich repeat LGI family member 2) | 2 | -0.988 | -3.98 | 2.67 | inactive
LGI2 (leucine rich repeat LGI family member 2) | 3 | -0.89 | -3.29 | 4.99 | inactive
CPNE4 (copine 4) | 1 | 0.479 | 6.34 | 7.36 | inactive
CPNE4 (copine 4) | 2 | 0.159 | 4.09 | 6.2 | inactive
CPNE4 (copine 4) | 3 | 4.06 | 31.5 | 21 | inactive
KCNH4 (potassium voltage-gated channel subfamily H member 4) | 1 | 0.324 | 5.24 | 7.2 | inactive
KCNH4 (potassium voltage-gated channel subfamily H member 4) | 2 | 1.17 | 11.2 | 8.57 | inactive
KCNH4 (potassium voltage-gated channel subfamily H member 4) | 3 | 4.37 | 33.7 | 17.5 | inactive
PER2 (period circadian regulator 2) | 1 | -0.577 | -1.09 | 3.16 | inactive
PER2 (period circadian regulator 2) | 2 | -0.259 | 1.14 | 6.5 | inactive
PER2 (period circadian regulator 2) | 3 | -0.585 | -1.15 | 2.86 | inactive
SLC15A5 | 1 | -0.488 | -0.467 | 3.75 | inactive
SLC15A5 | 2 | 4.52 | 34.8 | 14.5 | inactive
SLC15A5 | 3 | 4.32 | 33.4 | 16.1 | inactive
KIF17 (kinesin family member 17) | 1 | -0.117 | 2.14 | 6.53 | inactive
KIF17 (kinesin family member 17) | 2 | -0.246 | 1.24 | 4.78 | inactive
KIF17 (kinesin family member 17) | 3 | -0.408 | 0.0968 | 4.26 | inactive
LRRC4 (leucine rich repeat containing 4) | 1 | 1.38 | 12.7 | 8.84 | inactive
LRRC4 (leucine rich repeat containing 4) | 2 | -0.0661 | 2.5 | 5.13 | inactive
LRRC4 (leucine rich repeat containing 4) | 3 | -0.901 | -3.38 | 4.25 | inactive
SPAG16 (sperm associated antigen 16) | 1 | 0.673 | 7.7 | 7.07 | inactive
SPAG16 (sperm associated antigen 16) | 2 | 0.064 | 3.42 | 5.47 | inactive
SPAG16 (sperm associated antigen 16) | 3 | 0.222 | 4.53 | 7.52 | inactive
